In this assay the target is focal adhesion kinase (FAK) (human (endogenous in HUVECs)) (UniProt Q05397). The experiment in a line: co-IP; HUVECs stimulated with rhMG53 (10 μg/mL) or vehicle control for 24 h; lysates incubated with protein A/G plus agarose beads and anti-FAK antibody or IgG overnight at 4℃ (Pierce classic IP kit); immunoblot with antibodies against MG53 and Src. (In general: In western blotting, separated proteins are transferred to a membrane and probed.)

The chains behind the UniProt entries cited, without tags or fusion partners.
UniProt Q05397: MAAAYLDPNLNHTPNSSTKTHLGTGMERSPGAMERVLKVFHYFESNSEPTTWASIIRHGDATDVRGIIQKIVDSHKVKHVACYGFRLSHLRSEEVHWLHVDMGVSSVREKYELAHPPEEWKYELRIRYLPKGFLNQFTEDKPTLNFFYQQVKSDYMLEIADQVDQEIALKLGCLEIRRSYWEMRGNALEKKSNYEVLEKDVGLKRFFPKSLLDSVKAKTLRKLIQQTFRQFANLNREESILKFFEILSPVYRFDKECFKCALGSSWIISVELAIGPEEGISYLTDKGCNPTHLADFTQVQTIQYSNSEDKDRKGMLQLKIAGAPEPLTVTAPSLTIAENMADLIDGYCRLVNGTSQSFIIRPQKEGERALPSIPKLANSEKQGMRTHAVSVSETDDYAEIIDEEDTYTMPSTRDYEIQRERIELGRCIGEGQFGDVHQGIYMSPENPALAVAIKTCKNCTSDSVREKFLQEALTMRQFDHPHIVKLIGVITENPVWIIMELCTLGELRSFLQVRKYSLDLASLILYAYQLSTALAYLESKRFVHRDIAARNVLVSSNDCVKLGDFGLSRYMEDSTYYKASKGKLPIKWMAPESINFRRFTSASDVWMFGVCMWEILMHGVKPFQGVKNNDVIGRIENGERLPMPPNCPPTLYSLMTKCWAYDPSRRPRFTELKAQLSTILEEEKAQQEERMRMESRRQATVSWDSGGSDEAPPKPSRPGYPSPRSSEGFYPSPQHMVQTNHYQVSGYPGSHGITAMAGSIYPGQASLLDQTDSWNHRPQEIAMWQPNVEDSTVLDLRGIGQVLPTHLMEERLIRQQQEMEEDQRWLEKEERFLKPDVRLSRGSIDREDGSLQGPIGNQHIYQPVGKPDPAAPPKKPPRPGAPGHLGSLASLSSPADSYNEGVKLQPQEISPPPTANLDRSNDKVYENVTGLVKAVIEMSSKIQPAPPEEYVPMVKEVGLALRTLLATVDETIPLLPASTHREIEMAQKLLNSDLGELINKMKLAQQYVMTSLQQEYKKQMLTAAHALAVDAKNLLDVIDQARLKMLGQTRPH

Results are given in words; binding and its absence hold for the method and conditions named. In cells and extracts the contact can be indirect. Some entries that bind do so weakly or less than the wild type.

B1: recombinant human MG53 (Mitsugumin 53) (protein, UniProt Q6ZMU5 1-477)
chain: MSAAPGLLHQELSCPLCLQLFDAPVTAECGHSFCRACLGRVAGEPAADGTVLCPCCQAPTRPQALSTNLQLARLVEGLAQVPQGHCEEHLDPLSIYCEQDRALVCGVCASLGSHRGHRLLPAAEAHARLKTQLPQQKLQLQEACMRKEKSVAVLEHQLVEVEETVRQFRGAVGEQLGKMRVFLAALEGSLDREAERVRGEAGVALRRELGSLNSYLEQLRQMEKVLEEVADKPQTEFLMKYCLVTSRLQKILAESPPPARLDIQLPIISDDFKFQVWRKMFRALMPALEELTFDPSSAHPSLVVSSSGRRVECSEQKAPPAGEDPRQFDKAVAVVAHQQLSEGEHYWEVDVGDKPRWALGVIAAEAPRRGRLHAVPSQGLWLLGLREGKILEAHVEAKEPRALRSPERRPTRIGLYLSFGDGVLSFYDASDADALVPLFAFHERLPRPVYPFFDVCWHDKGKNAQPLLLVGPEGAEA
As to B1, the binding result is “binds”.

For the origin of these results see paper PMC8335693.
